Data as given in patent US20030180892A1.
No constants are given. Whether binding was seen depends on the method and setting. Some results given as binding are weak or reduced against the parent protein; the word gives no strength. Where a sequence is shown, tags or fusion partners need not be part of it.

What was measured:
[1] = target: T1, IL-17 receptor homolog Fc fusion (IL-17RH-Fc) (UniProt Q9NRM6); test: BIAcore (SPR), receptor-Fc immobilized on flow cell; two CHO cell IL-20 preparations
T1 sequence (looked up): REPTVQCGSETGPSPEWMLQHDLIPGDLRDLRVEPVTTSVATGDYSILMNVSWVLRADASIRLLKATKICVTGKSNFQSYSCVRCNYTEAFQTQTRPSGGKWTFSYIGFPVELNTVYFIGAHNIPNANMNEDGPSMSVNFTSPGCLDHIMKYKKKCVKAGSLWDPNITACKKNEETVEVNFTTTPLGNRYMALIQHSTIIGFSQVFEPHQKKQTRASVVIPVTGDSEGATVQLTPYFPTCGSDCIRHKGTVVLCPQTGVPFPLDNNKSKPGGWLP

[2] = target: T1, IL-17 receptor homolog Fc fusion (IL-17RH-Fc); test: BIAcore (SPR), summary of Example 31

binding [1]: binds
binding [2]: binds
B1: IL-20 polypeptide expressed in CHO cells (conditioned culture supernatants of clones 10, 16 and 22; HS50 cation-exchange fractions; CHO cell IL-20 preparations) (ligand)
chain: RSPKSKRKGQGRPGPLAPGPHQVPLDLVSRMKPYARMEEYERNIEEMVAQLRNSSELAQRKCEVNLQLWMSNKRSLSPWGYSINHDPSRIPVDLPEARCLCLGCVNPFTMQEDRSMVSVPVFSQVPVRRRLCPPPPRTGPCRQRAVMETIAVGCTCIF
modifications: glycosylated; single N-glycosylation site at residue 75 (FIG. 1 numbering)
